Test results published in the supplement of paper PMC10849652.
The list shows a part of the results.

The chains behind the UniProt entries cited, without tags or fusion partners. Where a name states a change or a piece, a line headed by the entry shows the natural chain unless it says otherwise.
UniProt Q15286: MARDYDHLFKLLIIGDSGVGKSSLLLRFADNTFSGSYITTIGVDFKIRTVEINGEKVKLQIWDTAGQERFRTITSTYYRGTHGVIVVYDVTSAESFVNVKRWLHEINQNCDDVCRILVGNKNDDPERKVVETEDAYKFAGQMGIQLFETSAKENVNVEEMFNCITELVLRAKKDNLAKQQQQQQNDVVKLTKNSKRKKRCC
UniProt P61020: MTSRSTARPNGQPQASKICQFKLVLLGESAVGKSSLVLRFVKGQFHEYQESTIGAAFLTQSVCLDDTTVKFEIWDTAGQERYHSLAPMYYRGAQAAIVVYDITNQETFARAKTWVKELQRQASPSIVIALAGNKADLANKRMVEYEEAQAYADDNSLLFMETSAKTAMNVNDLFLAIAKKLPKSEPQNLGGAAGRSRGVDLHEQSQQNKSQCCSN
UniProt Q86YS3: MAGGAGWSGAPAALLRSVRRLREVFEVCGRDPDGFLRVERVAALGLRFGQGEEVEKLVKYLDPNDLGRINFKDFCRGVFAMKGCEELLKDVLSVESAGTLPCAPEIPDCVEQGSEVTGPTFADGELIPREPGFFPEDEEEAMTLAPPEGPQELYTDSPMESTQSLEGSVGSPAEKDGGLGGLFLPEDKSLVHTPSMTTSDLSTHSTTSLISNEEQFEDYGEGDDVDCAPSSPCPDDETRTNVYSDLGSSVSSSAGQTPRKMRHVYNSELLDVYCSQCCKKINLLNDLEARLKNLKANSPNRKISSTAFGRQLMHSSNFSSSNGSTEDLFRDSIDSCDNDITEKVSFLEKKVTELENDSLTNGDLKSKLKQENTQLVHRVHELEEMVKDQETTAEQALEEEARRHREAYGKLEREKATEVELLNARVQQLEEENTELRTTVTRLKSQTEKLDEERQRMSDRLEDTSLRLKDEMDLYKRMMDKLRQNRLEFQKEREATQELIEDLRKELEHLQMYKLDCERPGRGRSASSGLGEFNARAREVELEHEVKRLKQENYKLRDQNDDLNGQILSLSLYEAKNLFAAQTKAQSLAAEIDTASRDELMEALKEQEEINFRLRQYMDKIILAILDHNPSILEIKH
UniProt Q6ZRP7: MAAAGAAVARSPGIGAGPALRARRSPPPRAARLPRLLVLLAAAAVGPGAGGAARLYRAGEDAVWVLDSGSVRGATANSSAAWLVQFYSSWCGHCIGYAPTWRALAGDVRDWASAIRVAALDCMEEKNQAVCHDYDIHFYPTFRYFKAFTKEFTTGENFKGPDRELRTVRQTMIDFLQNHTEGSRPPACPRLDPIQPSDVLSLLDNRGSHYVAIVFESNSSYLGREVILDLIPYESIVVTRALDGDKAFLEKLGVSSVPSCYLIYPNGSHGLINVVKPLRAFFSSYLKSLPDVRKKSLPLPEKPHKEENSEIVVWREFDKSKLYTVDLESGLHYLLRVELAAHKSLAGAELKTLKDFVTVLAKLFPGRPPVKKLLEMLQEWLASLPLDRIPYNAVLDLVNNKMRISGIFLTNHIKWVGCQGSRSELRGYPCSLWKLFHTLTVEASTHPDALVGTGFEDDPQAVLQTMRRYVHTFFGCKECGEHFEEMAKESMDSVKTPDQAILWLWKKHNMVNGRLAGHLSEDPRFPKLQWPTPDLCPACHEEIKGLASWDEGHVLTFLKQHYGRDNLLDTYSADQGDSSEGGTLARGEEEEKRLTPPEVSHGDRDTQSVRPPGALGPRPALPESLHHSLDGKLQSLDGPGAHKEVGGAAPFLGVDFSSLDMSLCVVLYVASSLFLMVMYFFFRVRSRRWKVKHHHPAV
UniProt Q9H6Z4: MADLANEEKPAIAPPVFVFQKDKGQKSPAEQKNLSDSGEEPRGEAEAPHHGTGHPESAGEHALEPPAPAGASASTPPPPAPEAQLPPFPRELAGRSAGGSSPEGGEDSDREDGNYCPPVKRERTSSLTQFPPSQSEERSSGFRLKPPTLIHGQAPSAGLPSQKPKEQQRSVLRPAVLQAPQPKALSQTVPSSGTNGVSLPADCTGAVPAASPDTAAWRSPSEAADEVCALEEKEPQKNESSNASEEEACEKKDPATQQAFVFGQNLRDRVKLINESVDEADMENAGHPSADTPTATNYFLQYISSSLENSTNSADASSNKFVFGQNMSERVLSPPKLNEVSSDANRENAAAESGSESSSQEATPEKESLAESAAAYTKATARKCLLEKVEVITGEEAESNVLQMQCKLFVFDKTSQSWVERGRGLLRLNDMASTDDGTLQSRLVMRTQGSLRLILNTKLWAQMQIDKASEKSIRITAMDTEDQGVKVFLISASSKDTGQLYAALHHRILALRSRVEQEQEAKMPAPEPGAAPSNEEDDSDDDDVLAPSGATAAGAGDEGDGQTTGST
UniProt Q06609, whole entry, looked up: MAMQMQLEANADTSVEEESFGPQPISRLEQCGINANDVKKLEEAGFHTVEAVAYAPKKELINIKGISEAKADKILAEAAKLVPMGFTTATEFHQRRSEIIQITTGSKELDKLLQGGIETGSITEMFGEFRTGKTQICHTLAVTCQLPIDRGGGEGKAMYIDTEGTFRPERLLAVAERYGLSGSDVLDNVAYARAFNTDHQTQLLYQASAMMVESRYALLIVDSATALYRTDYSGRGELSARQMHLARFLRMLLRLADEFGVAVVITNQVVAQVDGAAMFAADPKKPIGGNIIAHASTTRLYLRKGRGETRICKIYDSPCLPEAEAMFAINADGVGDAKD
UniProt Q92878: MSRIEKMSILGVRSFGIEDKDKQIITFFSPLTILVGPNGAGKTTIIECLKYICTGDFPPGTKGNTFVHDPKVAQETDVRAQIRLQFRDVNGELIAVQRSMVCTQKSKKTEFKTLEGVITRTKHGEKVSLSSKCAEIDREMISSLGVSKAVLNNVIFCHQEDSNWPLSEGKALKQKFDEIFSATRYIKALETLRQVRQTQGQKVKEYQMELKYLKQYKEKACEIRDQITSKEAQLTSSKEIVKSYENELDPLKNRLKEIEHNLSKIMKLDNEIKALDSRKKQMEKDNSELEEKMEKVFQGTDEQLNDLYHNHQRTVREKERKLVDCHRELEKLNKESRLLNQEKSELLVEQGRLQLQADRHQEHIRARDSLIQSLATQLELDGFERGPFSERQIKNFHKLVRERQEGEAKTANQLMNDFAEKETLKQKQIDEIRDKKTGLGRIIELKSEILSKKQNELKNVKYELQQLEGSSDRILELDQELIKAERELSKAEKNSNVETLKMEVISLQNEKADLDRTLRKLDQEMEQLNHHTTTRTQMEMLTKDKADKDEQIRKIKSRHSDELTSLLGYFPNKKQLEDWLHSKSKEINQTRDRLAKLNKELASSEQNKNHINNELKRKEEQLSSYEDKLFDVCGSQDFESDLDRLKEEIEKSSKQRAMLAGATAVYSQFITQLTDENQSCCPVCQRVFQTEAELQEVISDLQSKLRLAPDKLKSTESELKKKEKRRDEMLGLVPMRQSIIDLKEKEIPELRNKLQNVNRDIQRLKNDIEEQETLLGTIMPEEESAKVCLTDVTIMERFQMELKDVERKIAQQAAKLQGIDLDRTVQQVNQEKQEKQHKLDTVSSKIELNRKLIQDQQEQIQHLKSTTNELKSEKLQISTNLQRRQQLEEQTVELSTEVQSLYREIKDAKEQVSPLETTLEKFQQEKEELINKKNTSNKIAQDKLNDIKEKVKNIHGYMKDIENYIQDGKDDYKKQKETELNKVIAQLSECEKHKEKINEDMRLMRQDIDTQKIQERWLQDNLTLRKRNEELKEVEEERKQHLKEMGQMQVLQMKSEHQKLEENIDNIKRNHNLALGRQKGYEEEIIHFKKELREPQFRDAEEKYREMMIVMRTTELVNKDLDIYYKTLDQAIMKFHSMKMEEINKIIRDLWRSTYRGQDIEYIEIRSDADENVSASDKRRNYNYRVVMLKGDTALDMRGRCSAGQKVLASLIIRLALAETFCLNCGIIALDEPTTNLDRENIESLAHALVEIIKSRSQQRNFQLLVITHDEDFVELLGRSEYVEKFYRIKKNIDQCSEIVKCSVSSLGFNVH
UniProt P20339: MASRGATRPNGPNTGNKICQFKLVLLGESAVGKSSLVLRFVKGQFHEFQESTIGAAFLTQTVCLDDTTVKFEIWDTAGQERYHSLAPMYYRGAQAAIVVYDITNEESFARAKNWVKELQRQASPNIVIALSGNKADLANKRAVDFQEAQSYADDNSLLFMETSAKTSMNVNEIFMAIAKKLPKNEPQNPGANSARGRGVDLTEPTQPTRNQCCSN
UniProt P51159: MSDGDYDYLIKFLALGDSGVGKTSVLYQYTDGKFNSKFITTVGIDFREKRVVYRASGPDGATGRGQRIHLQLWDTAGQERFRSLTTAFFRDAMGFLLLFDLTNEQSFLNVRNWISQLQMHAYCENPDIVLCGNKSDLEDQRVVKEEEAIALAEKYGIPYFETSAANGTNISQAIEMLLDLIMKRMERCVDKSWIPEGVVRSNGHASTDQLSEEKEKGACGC
UniProt Q8WU10: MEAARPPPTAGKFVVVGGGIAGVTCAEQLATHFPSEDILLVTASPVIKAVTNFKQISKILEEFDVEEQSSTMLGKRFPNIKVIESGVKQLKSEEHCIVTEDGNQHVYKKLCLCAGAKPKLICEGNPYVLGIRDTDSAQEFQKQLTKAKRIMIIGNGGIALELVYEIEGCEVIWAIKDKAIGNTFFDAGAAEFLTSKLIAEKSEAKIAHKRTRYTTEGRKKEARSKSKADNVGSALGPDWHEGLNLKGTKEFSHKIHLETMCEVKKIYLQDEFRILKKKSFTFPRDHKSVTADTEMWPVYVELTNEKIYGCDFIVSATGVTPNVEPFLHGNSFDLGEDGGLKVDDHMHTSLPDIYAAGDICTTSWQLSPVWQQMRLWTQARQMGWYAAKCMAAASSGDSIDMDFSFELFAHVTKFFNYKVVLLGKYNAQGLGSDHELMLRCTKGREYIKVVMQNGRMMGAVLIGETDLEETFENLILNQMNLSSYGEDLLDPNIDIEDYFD
UniProt Q9Y3L5: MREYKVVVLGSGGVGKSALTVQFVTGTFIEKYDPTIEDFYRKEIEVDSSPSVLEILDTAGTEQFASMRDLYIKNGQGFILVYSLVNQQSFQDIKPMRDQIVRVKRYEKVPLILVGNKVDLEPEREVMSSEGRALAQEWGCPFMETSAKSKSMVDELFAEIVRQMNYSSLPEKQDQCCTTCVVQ
UniProt Q96I23: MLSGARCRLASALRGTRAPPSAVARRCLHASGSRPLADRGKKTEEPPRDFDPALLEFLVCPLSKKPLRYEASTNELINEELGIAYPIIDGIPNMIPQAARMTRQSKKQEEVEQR
UniProt Q9H974: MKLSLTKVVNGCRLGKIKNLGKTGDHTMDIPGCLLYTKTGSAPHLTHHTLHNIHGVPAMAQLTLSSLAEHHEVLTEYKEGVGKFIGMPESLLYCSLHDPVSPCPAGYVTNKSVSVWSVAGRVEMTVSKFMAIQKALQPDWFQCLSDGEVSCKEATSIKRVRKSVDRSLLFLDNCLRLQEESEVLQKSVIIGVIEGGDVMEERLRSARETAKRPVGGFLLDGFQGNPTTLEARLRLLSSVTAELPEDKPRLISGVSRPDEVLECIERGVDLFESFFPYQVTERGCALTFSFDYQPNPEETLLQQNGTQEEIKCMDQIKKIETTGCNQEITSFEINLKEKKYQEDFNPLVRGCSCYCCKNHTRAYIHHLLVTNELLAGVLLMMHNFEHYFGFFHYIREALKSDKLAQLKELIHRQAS

What follows are targets tested with Cc1sc2c(c1C)C(c1ccc(Cl)cc1)=N[C@@H](CC(=O)OC(C)(C)C)c1nnc(C)n1-2 (assay: log2 fold change, soluble protein after heating vs DMSO (PISA); higher = thermal stabilisation; K562 lysate, 10 uM; active = over 0.2 and 3.5 SD of the protein, either way, in both replicates (recomputed)).
Method in brief: (§1)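 The values are log-two fold changes in thermal stability compared with solvent controls and come from duplicates. They were obtained by TMTpro 16plex LC-MS/MS, with channel sums equalised, on the supernatant after 21,000xg for 90 min. That supernatant came from crude K562 extract at 1 mg/mL protein treated with 10 μM compound for 30 min, heated for 3 min across 48°C-58°C, pooled and brought to 0.5% NP-40 at 4°C.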

| Target | log2 fold change |
| --- | --- |
| QTRT1 (UniProt Q9BXR0) | inactive: -0.005 |
| RAB35 (UniProt Q15286) | inactive: -0.039 |
| R3HCC1 (UniProt Q9Y3T6) | inactive: -0.014 |
| RAB5B (UniProt P61020) | inactive: 0.042 |
| RAB11FIP4 (UniProt Q86YS3) | inactive: -0.063 |
| QSOX2 (UniProt Q6ZRP7) | inactive: -0.066 |
| QKI (UniProt Q96PU8) | inactive: 0.04 |
| RAB3IP (UniProt Q96QF0) | inactive: 0.015 |
| RANBP3 (UniProt Q9H6Z4) | inactive: -0.021 |
| RAP2A (UniProt P10114) | inactive: 0.002 |
| RAD51 (UniProt Q06609) | inactive: 0.022 |
| RAB4A (UniProt P20338) | inactive: 0.054 |
| RAB2B (UniProt Q8WUD1) | inactive: 0.034 |
| PYCR1 (UniProt J3QKT4) | inactive: -0.152 |
| RABAC1 (UniProt Q9UI14) | inactive: -0.018 |
| RAD50 isoform 2 (UniProt Q92878) | inactive: 0.008 |
| RAPGEF1 isoform 3 (UniProt Q13905) | inactive: -0.119 |
| RAB5A (UniProt P20339) | inactive: 0.017 |
| RAB4B isoform 2 (UniProt P61018) | inactive: 0.098 |
| RAB14 (UniProt P61106) | inactive: 0.046 |

| Target | log2 fold change |
| --- | --- |
| RAF1 isoform 2 (UniProt P04049) | inactive: -0.017 |
| RANBP10 (UniProt Q6VN20) | inactive: 0.05 |
| RABL6 (UniProt Q3YEC7) | inactive: 0.013 |
| PXK (UniProt Q7Z7A4) | inactive: 0.008 |
| RAP1GAP isoform 4 (UniProt P47736) | inactive: -0.009 |
| RABGAP1L isoform 5 (UniProt Q5R372) | inactive: -0.06 |
| RAB27A (UniProt P51159) | inactive: -0.013 |
| PYROXD1 (UniProt Q8WU10) | inactive: 0.039 |
| RABGAP1L isoform 3 (UniProt Q5R372) | inactive: -0.019 |
| RALGAPB (UniProt Q86X10) | inactive: -0.026 |
| RAP2C (UniProt Q9Y3L5) | inactive: -0.119 |
| RAD23B (UniProt P54727) | inactive: -0.068 |
| PYURF (UniProt Q96I23) | inactive: 0.007 |
| RAC2 (UniProt P15153) | inactive: 0.067 |
| PYCR3 (UniProt Q53H96) | inactive: 0.003 |
| QTRT2 isoform 4 (UniProt Q9H974) | inactive: -0.019 |
| RANBP3 isoform 2 (UniProt Q9H6Z4) | inactive: -0.04 |
| RAP2B (UniProt P61225) | inactive: -0.037 |
| RAB20 (UniProt Q9NX57) | inactive: -0.097 |

The targets below were run with c1ccc([C@@H]2C[C@H]2NC2CCNCC2)cc1 in the same assay as above.
Method in brief: as §1

| Target | log2 fold change |
| --- | --- |
| QTRT1 (UniProt Q9BXR0) | inactive: -0.087 |
| RAB35 (UniProt Q15286) | inactive: 0.004 |
| R3HCC1 (UniProt Q9Y3T6) | inactive: -0.047 |
| RAB5B (UniProt P61020) | inactive: 0.039 |
| QSOX2 (UniProt Q6ZRP7) | inactive: -0.062 |
| QKI (UniProt Q96PU8) | inactive: -0.034 |
| RAB3IP (UniProt Q96QF0) | inactive: -0.028 |
| RANBP3 (UniProt Q9H6Z4) | inactive: -0.006 |
| RAP2A (UniProt P10114) | inactive: 0.064 |
| RAD51 (UniProt Q06609) | inactive: -0.042 |
| RAB4A (UniProt P20338) | inactive: 0.027 |
| RAB2B (UniProt Q8WUD1) | inactive: -0.013 |
| RAD50 isoform 2 (UniProt Q92878) | inactive: 0.009 |
| RAPGEF1 isoform 3 (UniProt Q13905) | inactive: -0.01 |
| RAB5A (UniProt P20339) | inactive: 0.004 |
| RAB4B isoform 2 (UniProt P61018) | inactive: 0.003 |
| RAB14 (UniProt P61106) | inactive: -0.037 |

| Target | log2 fold change |
| --- | --- |
| RAF1 isoform 2 (UniProt P04049) | inactive: 0.013 |
| RANBP10 (UniProt Q6VN20) | inactive: 0.011 |
| RABL6 (UniProt Q3YEC7) | inactive: -0.009 |
| PXK (UniProt Q7Z7A4) | inactive: -0.054 |
| RAP1GAP isoform 4 (UniProt P47736) | inactive: 0.007 |
| RABGAP1L isoform 5 (UniProt Q5R372) | inactive: -0.007 |
| RAB27A (UniProt P51159) | inactive: 0.181 |
| PYROXD1 (UniProt Q8WU10) | inactive: -0.066 |
| RABGAP1L isoform 3 (UniProt Q5R372) | inactive: -0.01 |
| RALGAPB (UniProt Q86X10) | inactive: 0.006 |
| RAP2C (UniProt Q9Y3L5) | inactive: -0.009 |
| RAD23B (UniProt P54727) | inactive: -0.028 |
| PYURF (UniProt Q96I23) | inactive: -0.091 |
| RAC2 (UniProt P15153) | inactive: 0.028 |
| PYCR3 (UniProt Q53H96) | inactive: -0.036 |
| QTRT2 isoform 4 (UniProt Q9H974) | inactive: -0.157 |
| RAP2B (UniProt P61225) | inactive: -0.048 |
